Values quoted from earlier work as cited in patent US7618946B2, “Analgesic compounds, extracts containing same and methods of preparation” (Griffith University, priority 2003, dated 2009).
At least one structure is not confirmed: it was looked up by name or label, or the drawing left a doubt.

System: mice
Details: anti-inflammatory compounds and steroids [61]; cited from earlier work

SMILES: C[C@@H]1C[C@H]2[C@@H]3CCC4=CC(=O)C=C[C@]4(C)[C@@]3(F)[C@@H](O)C[C@]2(C)[C@@]1(O)C(=O)CO [dexamethasone]
- effect on late phase: affected
